37 compounds from PubChem BioAssay AID493014 (National Center for Advancing Translational Sciences (NCATS), 2011) can be followed below.

This test can be described thus: qHTS Assay to Find Inhibitors of Chronic Active B-Cell Receptor Signaling. To be noted: ABC-DLBCL IkBa-CBG/CBR reporter, luminescence ratio (green luciferase fused to IkBa over red control in TMD8 lymphoma cells), 4 h. The essentials:
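Cell line TMD8 (human ABC DLBCL), stably expressing tet-inducible CBG68-IkBa fusion and CBR; IMDM/0.5% FBS; cpd up to 46 uM; dox induction, 4 h, 37C/5% CO2; dual luminescence; green/red ratio; MG132 control.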
On the technique in general: In qHTS, concentration-response curves come from the screen itself.

[1] abbreviates: measured here: CBR red luminescence, cell number.
Setting [2] is: measured here: IkBa-CBG green luminescence.

Each structure is given as a SMILES string. Some of the results follow. The main result of the screen is listed elsewhere. These columns were measured beside it and carry no call. The list favours compounds with an active or inconclusive main result. Words in brackets tell the shape of the fitted curve; partial curves, single points and poor fits give uncertain potencies.

As for `CC1(C)CC(=O)c2cnc(N3CCN(c4ccccc4)CC3)nc2C1`, the AC50 under setting [1] is 11.2 µM [rising, partial curve].
Same read-out and setting: under `O=C(Cn1cnc2c(cnn2-c2ccccc2)c1=O)Nc1ccc(S(=O)(=O)N2CCOCC2)cc1` stands 18.4 µM [falling, single point].
Turning to `COCCn1c(-c2cccc([N+](=O)[O-])c2)nc2c1c(=O)[nH]c(=O)n2Cc1ccccc1`, the concentration at half-maximal activity (AC50) under setting [2] is 23.1 µM [falling, partial curve, poor fit].
With `O=C(CSc1ccc2nnc(-c3ccc(Cl)cc3)n2n1)N1CCCc2ccccc21`, the AC50 under setting [1] is 4.61 µM [rising, full curve, poor fit].
As to `CCSc1nnc(NC(=O)c2cc3c(s2)CCCC3)s1`, the AC50 under setting [1] was 0.447 µM [rising, full curve, poor fit].
The same measure, in the same setting: under `COc1cccc2c1C(=O)c1c(O)c3c(c(O)c1C2=O)C[C@@](O)(C(C)=O)C[C@@H]3O[C@H]1C[C@H](N)[C@H](O)[C@H](C)O1` stands 2.06 µM [falling, full curve].
With `Cn1c2ccccc2c2c(C(=O)NCc3ccco3)cn(C3CCCCC3)c(=O)c21`, the AC50 by setting is: under setting [1], 14.6 µM [falling, partial curve, poor fit]; under setting [2], 1.3 µM [rising, full curve, poor fit].
For the compound `CCC(=O)Nc1ccc(/C=C(\C(C)=O)C(=O)c2ccccc2)cc1`, the AC50 under setting [1] is 35.5 µM [falling, single point].
Take `O=C(c1cccs1)N1CCC(c2ccccc2)C1` (configuration not stated): the AC50 under setting [1] was 16.4 µM [falling, single point].
Still for that read-out and setting: under `CCOc1ccc(-c2cnc(SCC(N)=O)nc2N)cc1` stands 6.51 µM [falling, partial curve, poor fit].
On the same count and under the same terms, under `O=C(O)c1ccc(-c2ccc(/C=C3\NC(=O)N(Cc4ccc(Cl)cc4)C3=O)o2)cc1` stands 12.6 µM [falling, partial curve, poor fit].
For `CNC(=O)c1cc(Oc2ccc(NC(=O)Nc3ccc(Cl)c(C(F)(F)F)c3)cc2)ccn1`, the AC50 is, setting by setting: under setting [1], 10.3 µM [falling, partial curve]; under setting [2], 2.31 µM [rising, partial curve, poor fit].
As for `CC(C)(C)NC(=O)CSc1nc(O)cc(=O)[nH]1`, the AC50 under setting [1] was 14.6 µM [rising, partial curve, poor fit].
Consider `O=C(NC1CCN(C(=O)Nc2cccc(Cl)c2)CC1)C1CCCCC1`, for which the AC50 under setting [1] was 11.2 µM [rising, partial curve, poor fit].
In the case of `FC(F)(F)c1nc2ccccc2nc1N/N=C\c1ccccc1`, the AC50 under setting [1] was 35.5 µM [rising, partial curve, poor fit].
On the same count and under the same terms, the same measure for `COc1cc(C=C(C(C)=O)C(C)=O)ccc1O`: 29.1 µM [falling, single point]; for `COc1ccc(N2C(=O)C(C)(C)C2c2c(O)ccc3ccccc23)cc1` (configuration not stated): 7.94 µM [falling, partial curve].
The same measure, in the same setting: under `COc1cccc(-c2cc(-c3cccnc3)nc(N)c2C#N)c1` stands 0.398 µM [falling, full curve]; under `COc1ccc(C(=O)NCc2cccnc2)cc1S(=O)(=O)N1CCOCC1`, 29.1 µM [rising, single point].
On the same count and under the same terms, under `C=CCC[C@@H](Cc1ccc(F)cc1)C(=O)OC[C@@H]1CCCN1C(=O)[C@H](CC=C)CC(=O)N[C@H](CO)Cc1ccccc1` stands 29.1 µM [falling, single point].
In the case of `CCS(=O)(=O)N1Cc2ccccc2CC1C(=O)Nc1nc(C)cs1` (configuration not stated), the AC50 under setting [1] is 0.447 µM [rising, full curve, poor fit].
Regarding `Cc1ccc(CNC(=O)Cc2noc3ccccc23)cc1`, the AC50 under setting [1] was 11.2 µM [falling, partial curve].
Turning to `CCN1CCCC1CNc1ncnc2c1[nH]c1ccc(Cl)cc12` (configuration not stated), the AC50 under setting [1] was 31.6 µM [falling, single point].
On the same count and under the same terms, the same measure for `CCN(CC)CCCOC(=O)C1(c2ccccc2)CCCC1`: 29.1 µM [falling, single point].
On to `COc1ccc(/C=C/C(=O)c2cc(Br)ccc2OC(=O)c2ccco2)cc1OC`, for which the concentration at half-maximal activity (AC50) reads like this: under setting [1], 13 µM [rising, partial curve]; under setting [2], 10.3 µM [falling, partial curve].
Consider `COc1cccc(C(=O)Nc2cccc(SC)c2)c1`, for which, under setting [1], the AC50 is 35.5 µM [falling, single point].
Still for that read-out and setting: under `Cc1cc(=O)[nH]c(SCC(=O)Nc2ccc(Cl)cn2)n1` stands 0.82 µM [falling, full curve, poor fit].
The same measure, in the same setting: the same measure for `COc1ccc(C(=O)NC(C)c2cc(OC)c(OC)cc2Br)cc1` (configuration not stated): 22.4 µM [rising, single point]; for `O=C(OCCCN=C1NS(=O)(=O)c2ccccc21)c1ccc(F)cc1`: 2.31 µM [rising, partial curve, poor fit].
On the same count and under the same terms, the same measure for `COc1ccc(/C=C2\SC(=S)N(CCCC(=O)N3CCCCC3CCO)C2=O)cc1` (configuration not stated): 1.41 µM [falling, full curve]; for `CC1CCCC(C)N1C(=O)COC(=O)c1cc([N+](=O)[O-])ccc1N1CCOCC1` (configuration not stated): 7.31 µM [rising, partial curve, poor fit]; for `Cc1ccccc1NC1=NC(=S)N(c2ccccc2)C12CCCCC2`: 29.1 µM [falling, single point].
`O=C1CCCN2N=C(SCC(=O)Nc3cccc(C(F)(F)F)c3)SC2=N1`: the AC50 under setting [1] was 35.5 µM [falling, partial curve, poor fit].
In the case of `Cn1cnc([N+](=O)[O-])c1Oc1ccc2ccccc2c1`, the half-maximal activity concentration (AC50) under setting [1] is 1.64 µM [falling, partial curve, poor fit].
Consider `Cc1nn(C)cc1NC(=O)CCSc1nc(-c2ccco2)cc(C(F)(F)F)n1`, for which the AC50 runs as follows: under setting [1], 4.61 µM [falling, partial curve]; under setting [2], 2.91 µM [rising, partial curve, poor fit].
With `Cc1c(NC(=O)C(C)OC(=O)COc2cccc3c2OC(C)(C)C3)c(=O)n(-c2ccccc2)n1C` (configuration not stated), the AC50 is 20.6 µM [rising, single point] under setting [1] and 29.1 µM [falling, single point] under setting [2].
With `Cc1cc(C)n(-c2ccc(C(=O)OCC(=O)Nc3cc(S(C)(=O)=O)ccc3Cl)cc2)n1`, the AC50 under setting [1] is 1.03 µM [rising, partial curve, poor fit].

What is called AC50 is the concentration giving half of the maximal activity seen.
